# Test results taken from the supplement of paper PMC7666118.
# Protein sequences, listed by entry. Tags and fused reporters are not part of them. Lines headed by an entry give the natural chain unless they say otherwise; changes in a name come on top.
# UniProt P25205: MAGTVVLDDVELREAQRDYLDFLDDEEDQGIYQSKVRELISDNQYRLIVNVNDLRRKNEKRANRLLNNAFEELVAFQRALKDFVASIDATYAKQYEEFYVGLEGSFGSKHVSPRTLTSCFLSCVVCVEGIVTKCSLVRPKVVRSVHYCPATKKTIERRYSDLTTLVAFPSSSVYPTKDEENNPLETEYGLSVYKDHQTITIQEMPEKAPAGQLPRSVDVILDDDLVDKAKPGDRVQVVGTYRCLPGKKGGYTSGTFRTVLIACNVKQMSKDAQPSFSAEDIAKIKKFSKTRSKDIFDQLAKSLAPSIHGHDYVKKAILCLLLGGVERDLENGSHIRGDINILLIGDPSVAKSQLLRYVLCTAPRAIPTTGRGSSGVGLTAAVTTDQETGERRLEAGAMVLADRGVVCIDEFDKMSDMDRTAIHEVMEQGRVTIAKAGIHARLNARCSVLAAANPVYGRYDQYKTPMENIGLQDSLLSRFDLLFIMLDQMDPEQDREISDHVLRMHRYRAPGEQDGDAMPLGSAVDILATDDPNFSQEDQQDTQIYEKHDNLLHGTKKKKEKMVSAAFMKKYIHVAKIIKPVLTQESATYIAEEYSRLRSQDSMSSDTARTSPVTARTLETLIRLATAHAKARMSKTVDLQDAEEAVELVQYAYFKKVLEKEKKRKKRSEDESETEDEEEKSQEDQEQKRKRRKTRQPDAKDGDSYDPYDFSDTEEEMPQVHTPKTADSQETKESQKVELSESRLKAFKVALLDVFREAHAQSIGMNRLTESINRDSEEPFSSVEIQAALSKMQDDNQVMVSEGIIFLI
# UniProt Q9UQ53: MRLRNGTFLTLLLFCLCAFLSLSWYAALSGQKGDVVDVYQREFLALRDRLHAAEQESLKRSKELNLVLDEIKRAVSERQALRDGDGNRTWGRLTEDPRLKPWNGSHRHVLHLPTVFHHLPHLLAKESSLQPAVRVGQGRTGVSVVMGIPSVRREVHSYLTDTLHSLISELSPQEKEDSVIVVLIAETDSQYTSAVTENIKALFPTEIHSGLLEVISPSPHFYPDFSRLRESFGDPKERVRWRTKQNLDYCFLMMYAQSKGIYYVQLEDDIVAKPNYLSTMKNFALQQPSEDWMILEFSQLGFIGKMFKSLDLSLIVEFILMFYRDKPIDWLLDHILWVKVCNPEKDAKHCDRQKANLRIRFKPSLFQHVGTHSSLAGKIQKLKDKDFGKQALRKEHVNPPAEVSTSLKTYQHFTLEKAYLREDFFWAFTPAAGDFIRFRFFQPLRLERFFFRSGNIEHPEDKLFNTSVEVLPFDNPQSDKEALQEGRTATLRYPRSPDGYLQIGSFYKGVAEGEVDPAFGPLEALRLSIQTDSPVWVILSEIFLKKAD
# UniProt P53778: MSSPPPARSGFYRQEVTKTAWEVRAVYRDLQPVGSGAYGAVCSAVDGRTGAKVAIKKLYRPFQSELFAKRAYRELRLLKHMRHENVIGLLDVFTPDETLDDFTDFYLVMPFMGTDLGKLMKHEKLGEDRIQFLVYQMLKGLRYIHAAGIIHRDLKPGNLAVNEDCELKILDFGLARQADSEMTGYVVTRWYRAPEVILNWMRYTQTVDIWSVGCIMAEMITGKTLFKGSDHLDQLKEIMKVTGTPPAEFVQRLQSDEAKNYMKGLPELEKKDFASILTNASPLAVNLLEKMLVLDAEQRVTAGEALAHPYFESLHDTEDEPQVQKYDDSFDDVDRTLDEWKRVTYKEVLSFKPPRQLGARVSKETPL
# UniProt Q96T76: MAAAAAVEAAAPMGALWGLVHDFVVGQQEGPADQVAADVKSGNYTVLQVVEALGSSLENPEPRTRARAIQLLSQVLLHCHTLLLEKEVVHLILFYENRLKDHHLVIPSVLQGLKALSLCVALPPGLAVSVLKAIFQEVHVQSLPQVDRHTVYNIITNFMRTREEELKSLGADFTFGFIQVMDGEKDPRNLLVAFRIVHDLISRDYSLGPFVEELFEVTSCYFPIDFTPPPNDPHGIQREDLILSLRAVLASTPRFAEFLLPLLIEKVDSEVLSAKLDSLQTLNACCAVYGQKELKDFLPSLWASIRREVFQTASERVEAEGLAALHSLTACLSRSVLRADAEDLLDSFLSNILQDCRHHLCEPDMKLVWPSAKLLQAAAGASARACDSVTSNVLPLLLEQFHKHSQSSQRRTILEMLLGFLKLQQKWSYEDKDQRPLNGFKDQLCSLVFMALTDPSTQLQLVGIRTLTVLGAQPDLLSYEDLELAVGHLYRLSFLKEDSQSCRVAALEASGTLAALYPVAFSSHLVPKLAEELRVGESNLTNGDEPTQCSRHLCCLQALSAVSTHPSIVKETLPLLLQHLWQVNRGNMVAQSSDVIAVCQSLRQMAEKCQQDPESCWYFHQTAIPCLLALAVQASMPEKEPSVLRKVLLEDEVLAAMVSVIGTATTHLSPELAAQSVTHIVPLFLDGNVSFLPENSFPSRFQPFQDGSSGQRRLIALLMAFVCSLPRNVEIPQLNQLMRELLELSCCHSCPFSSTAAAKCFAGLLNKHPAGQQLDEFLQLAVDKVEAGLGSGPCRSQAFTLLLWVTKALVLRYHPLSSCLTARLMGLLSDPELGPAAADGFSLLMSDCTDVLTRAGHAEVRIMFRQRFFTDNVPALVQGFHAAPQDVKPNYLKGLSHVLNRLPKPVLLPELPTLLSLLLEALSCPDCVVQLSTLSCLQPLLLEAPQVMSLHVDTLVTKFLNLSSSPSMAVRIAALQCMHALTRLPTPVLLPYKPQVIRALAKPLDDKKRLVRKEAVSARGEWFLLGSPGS
# UniProt Q99735: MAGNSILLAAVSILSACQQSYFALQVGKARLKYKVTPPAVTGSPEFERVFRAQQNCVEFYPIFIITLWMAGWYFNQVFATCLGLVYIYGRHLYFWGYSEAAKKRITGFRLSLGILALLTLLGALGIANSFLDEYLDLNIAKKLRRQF
# UniProt Q9NTJ4: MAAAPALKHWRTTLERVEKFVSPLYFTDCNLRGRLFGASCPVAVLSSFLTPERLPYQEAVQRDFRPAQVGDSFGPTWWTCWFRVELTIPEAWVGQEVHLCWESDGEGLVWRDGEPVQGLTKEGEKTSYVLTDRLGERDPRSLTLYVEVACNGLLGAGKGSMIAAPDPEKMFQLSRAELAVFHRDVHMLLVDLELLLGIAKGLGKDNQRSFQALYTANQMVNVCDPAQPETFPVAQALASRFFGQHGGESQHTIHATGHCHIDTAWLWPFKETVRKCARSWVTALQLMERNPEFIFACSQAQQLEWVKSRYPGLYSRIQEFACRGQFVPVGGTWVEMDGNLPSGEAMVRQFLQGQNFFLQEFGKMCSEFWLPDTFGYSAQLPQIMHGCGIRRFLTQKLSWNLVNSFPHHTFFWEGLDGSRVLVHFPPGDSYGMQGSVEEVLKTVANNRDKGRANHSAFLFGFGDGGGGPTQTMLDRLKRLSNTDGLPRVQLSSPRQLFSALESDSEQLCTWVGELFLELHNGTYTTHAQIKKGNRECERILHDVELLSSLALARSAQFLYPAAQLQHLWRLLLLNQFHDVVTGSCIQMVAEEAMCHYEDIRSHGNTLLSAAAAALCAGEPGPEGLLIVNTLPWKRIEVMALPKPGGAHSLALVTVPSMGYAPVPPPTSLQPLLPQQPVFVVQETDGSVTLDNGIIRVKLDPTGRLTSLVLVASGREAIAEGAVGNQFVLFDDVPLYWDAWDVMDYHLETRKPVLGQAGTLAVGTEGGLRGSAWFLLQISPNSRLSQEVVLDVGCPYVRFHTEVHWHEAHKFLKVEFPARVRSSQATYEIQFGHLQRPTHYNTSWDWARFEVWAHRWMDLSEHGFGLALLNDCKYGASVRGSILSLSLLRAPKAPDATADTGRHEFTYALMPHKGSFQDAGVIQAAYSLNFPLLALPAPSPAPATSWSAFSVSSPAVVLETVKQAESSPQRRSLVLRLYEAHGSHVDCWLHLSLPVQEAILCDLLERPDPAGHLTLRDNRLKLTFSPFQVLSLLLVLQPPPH
# UniProt Q8IUF8: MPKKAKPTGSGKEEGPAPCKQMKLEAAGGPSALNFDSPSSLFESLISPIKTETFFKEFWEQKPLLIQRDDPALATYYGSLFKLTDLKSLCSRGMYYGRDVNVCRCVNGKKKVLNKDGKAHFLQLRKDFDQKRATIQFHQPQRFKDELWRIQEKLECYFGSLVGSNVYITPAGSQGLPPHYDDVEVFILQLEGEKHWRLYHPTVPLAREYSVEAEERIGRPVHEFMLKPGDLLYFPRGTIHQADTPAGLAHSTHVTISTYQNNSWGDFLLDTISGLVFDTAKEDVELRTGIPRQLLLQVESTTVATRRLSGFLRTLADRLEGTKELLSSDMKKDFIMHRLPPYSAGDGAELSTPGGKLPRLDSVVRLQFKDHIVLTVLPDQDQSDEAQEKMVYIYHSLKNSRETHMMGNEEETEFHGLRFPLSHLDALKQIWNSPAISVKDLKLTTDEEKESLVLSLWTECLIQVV
# UniProt Q5JRA6: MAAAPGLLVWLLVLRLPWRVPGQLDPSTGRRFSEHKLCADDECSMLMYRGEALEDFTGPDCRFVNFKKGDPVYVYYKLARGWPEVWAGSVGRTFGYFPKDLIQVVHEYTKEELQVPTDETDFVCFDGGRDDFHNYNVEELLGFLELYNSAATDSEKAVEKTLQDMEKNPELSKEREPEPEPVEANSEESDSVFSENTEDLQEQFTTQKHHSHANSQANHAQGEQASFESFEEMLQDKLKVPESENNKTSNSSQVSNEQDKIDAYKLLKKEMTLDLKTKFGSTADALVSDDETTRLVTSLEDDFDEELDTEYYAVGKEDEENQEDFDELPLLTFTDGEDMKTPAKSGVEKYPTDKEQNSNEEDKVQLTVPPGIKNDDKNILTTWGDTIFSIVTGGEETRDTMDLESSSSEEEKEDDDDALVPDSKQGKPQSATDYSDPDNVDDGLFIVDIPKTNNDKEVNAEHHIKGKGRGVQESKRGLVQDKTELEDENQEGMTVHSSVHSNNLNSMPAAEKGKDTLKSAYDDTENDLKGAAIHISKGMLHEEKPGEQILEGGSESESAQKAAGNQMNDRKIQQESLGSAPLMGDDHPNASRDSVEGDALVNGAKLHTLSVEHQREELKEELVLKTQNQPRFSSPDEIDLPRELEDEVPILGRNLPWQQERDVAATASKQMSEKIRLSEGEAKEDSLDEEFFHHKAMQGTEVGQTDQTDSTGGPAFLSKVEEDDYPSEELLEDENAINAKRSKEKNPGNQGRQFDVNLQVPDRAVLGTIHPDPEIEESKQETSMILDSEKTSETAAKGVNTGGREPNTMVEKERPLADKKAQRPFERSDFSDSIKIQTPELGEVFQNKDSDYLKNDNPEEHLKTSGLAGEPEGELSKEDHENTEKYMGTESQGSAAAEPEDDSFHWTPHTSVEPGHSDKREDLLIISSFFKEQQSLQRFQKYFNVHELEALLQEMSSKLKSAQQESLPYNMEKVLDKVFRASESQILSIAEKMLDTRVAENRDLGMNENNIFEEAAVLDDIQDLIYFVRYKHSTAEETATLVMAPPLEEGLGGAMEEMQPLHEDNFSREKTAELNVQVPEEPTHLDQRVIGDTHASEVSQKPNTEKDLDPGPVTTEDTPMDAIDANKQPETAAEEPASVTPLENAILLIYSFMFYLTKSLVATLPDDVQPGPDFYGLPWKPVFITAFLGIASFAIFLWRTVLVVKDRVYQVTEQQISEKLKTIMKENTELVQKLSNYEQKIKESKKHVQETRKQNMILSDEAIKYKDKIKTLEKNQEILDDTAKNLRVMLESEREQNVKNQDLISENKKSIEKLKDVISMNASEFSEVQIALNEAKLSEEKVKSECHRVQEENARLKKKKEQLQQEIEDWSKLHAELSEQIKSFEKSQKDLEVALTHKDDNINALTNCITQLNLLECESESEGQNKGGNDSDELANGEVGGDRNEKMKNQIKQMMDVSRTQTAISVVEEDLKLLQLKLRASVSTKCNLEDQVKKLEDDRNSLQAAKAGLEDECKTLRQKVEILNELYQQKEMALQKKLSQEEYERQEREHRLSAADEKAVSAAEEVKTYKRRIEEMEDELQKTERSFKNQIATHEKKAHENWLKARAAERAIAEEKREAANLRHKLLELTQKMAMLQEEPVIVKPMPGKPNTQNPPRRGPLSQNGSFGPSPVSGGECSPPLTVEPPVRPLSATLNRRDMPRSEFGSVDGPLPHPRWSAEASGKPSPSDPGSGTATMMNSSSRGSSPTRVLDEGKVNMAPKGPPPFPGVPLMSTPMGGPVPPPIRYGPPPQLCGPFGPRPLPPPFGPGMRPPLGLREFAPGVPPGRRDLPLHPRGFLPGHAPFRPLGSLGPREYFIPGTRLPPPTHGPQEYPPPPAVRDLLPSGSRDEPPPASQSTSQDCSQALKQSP
# UniProt Q96EY8: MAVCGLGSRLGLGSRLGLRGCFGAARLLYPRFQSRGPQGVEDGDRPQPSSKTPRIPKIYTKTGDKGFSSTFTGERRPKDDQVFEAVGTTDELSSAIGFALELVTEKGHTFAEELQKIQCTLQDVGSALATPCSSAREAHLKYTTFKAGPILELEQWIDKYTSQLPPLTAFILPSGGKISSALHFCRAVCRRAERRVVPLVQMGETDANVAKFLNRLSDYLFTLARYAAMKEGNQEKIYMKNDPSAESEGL
# The other results are listed elsewhere or left out.
# Compound: COc1ccc(Cn2ccc3ccc(C(=O)NO)cc32)cc1
# Assay: dose-dependent thermal stabilisation call (2D-TPP, DLPTP, 10% FDR) (binary (1 = stabilised)); higher = stabilised by the compound
# Conditions: system: HL-60 intact cells; concentration range 0.04-10 µM
row,Target,dose-dependent thermal stabilisation call
1,MLLT4 (UniProt P55196),inactive: 0
2,MFN1 (UniProt Q8IWA4),inactive: 0
3,MCM3 (UniProt P25205),inactive: 0
4,METT5D1 (UniProt A6NJ78),inactive: 0
5,MGAT4B (UniProt Q9UQ53),inactive: 0
6,MAPK12 (UniProt P53778),inactive: 0
7,METTL2B (UniProt Q6P1Q9),inactive: 0
8,MED14 (UniProt O60244),inactive: 0
9,MMS19 (UniProt Q96T76),inactive: 0
10,MAP4K4 (UniProt O95819),inactive: 0
11,MCTS1 (UniProt Q9ULC4),inactive: 0
12,MARS (UniProt P56192),inactive: 0
13,MLEC (UniProt Q14165),inactive: 0
14,MLL2,inactive: 0
15,MOCS2,inactive: 0
16,MRPS18C (UniProt Q9Y3D5),inactive: 0
17,MGST2 (UniProt Q99735),inactive: 0
18,MRPL23 (UniProt Q16540),inactive: 0
19,MAN2C1 (UniProt Q9NTJ4),inactive: 0

# No new results follow: an excerpt of the list.
row,Target,dose-dependent thermal stabilisation call
11,MCTS1 (UniProt Q9ULC4),inactive: 0
12,MARS (UniProt P56192),inactive: 0
13,MLEC (UniProt Q14165),inactive: 0

# (next part)

row,Target,dose-dependent thermal stabilisation call
1,MORG1 (UniProt Q9BRX9),inactive: 0
2,MRPS25 (UniProt P82663),inactive: 0
3,MINA (UniProt Q8IUF8),inactive: 0
4,MIA3 (UniProt Q5JRA6),inactive: 0
5,METT10D (UniProt Q86W50),inactive: 0
6,MCM4 (UniProt P33991),inactive: 0
7,MMAB (UniProt Q96EY8),inactive: 0
8,METTL9 (UniProt Q9H1A3),inactive: 0
9,MIER1 (UniProt Q8N108),inactive: 0
10,MRPS27 (UniProt Q92552),inactive: 0
11,MBIP (UniProt Q9NS73),inactive: 0
12,ME2 (UniProt P23368),active: 1
13,MKI67 (UniProt P46013),inactive: 0
14,MON1A (UniProt Q86VX9),inactive: 0
15,MAPKAPK3 (UniProt Q16644),inactive: 0
16,MRPS11 (UniProt P82912),inactive: 0
17,MATR3 (UniProt P43243),inactive: 0
18,MBTD1 (UniProt Q05BQ5),inactive: 0
